{
  "source": "PubChem BioAssay AID540256",
  "about": "(National Center for Advancing Translational Sciences (NCATS), 2011)",
  "note": "Screen size: about 300,000 compounds; about 3,700 (1.2%) were called active. Inconclusive means that the source gave no clear call. Such entries were picked first, then a sample of the others. The call rests on the fitted dose curve; tested in HEK293 cells. Potencies beside an inconclusive call are fits to weak or partial responses and may not hold up. Potency means the concentration at half of the fitted maximal effect.",
  "data": [
    {"assay": "qHTS for Inhibitors of binding or entry into cells for Lassa Virus; further: nearly all actives have a fitted effect of over 50% in size", "settings": "Lassa virus pseudotype entry inhibition, cell reporter; series mostly up to 37.9 µM", "values": [
      {"molecule": "S=C(Nc1ccc(Cl)c(Cl)c1)NC1CCN(Cc2ccccc2)CC1", "Potency": "inconclusive: 12.6 µM [inhibitor, single point]"},
      {"molecule": "COC(=O)CCNC(=O)NC(CCC(C)C)c1c(-n2cccc2)sc2c1CCN(C)C2", "note": "(configuration not stated)", "Potency": "inconclusive: 4.47 µM [activator, full curve, poor fit]"},
      {"molecule": "O=C1CCCN1c1ccc(S(=O)(=O)Oc2ccc(Cl)cc2)cc1[N+](=O)[O-]", "Potency": "inconclusive: 22.4 µM [inhibitor, single point]"},
      {"molecule": "COc1ccc(-c2n[nH]c(=S)n2-c2cc(OC)ccc2OC)cc1", "Potency": "inconclusive: 0.562 µM [inhibitor, full curve, poor fit]"},
      {"molecule": "Cc1cccnc1NC(=O)c1ccc2c(c1)NC(=O)C(C)S2", "note": "(configuration not stated)", "Potency": "inconclusive: 35.5 µM [activator, single point]"},
      {"molecule": "CCN1CCN(c2ccc(NC(=O)c3ccc4c(c3)[nH]c(=O)n4Cc3ccc(OC)cc3)cc2)CC1", "Potency": "inconclusive: 29.1 µM [inhibitor, single point]"},
      {"molecule": "NC(N)=N/N=C/c1ccc(Cl)cc1Cl", "Potency": "inconclusive: 14.1 µM [inhibitor, single point]"},
      {"molecule": "O=C(Nc1cccc(F)c1)Nc1ccccn1", "Potency": "inconclusive: 25.9 µM [activator, single point]"},
      {"molecule": "COCCn1c(SCC(=O)NCc2cccs2)nnc1-c1ccc(OC)cc1", "Potency": "inactive"},
      {"molecule": "CCC(C(=O)Nc1ccc(S(=O)(=O)N2CCN(C)CC2)cc1)c1ccccc1", "note": "(configuration not stated)", "Potency": "inactive"},
      {"molecule": "Cc1cc(C(=O)N/N=C/c2c(CO)cnc(C)c2O)c2ccccc2n1", "Potency": "inconclusive: 8.91 µM [inhibitor, partial curve, poor fit]"},
      {"molecule": "COc1ccc(/C=N/NC(=O)c2ccncc2)cc1Cn1nc([N+](=O)[O-])c(Br)c1C", "Potency": "inactive"},
      {"molecule": "COc1cccc(NC(=O)CCN2CCN(c3ccccc3)CC2)c1", "Potency": "inconclusive: 6.31 µM [inhibitor, partial curve, poor fit]"},
      {"molecule": "CC(C)NS(=O)(=O)c1ccc(OCC(=O)N2CCN(Cc3ccc4c(c3)OCO4)CC2)c(Cl)c1", "Potency": "inconclusive: 7.3 µM [inhibitor, partial curve]"},
      {"molecule": "CC(C)C(C)NC(=O)COc1ccc(Sc2ccc(OCC(=O)NC(C)C(C)C)cc2)cc1", "note": "(configuration not stated)", "Potency": "inconclusive: 20 µM [inhibitor, single point]"},
      {"molecule": "O=C(CSc1nnc(COc2ccccc2)n1Cc1ccco1)c1ccc(F)cc1", "Potency": "inactive"},
      {"molecule": "CC(=O)Nc1ccc(NC(=O)COC(=O)C2c3ccccc3Oc3ccccc32)cc1", "Potency": "inconclusive: 3.98 µM [inhibitor, partial curve, poor fit]"},
      {"molecule": "Oc1ccc(/C=N/NC2=NCCCCC2)c(O)c1", "Potency": "inconclusive: 35.5 µM [inhibitor, single point]"},
      {"molecule": "Clc1ccccc1N/N=C/c1ccc2c(c1)OCO2", "Potency": "inconclusive: 1.12 µM [activator, full curve, poor fit]"},
      {"molecule": "Cc1ccccc1OCC(=O)OCC(=O)NCC1CCCO1", "note": "(configuration not stated)", "Potency": "inactive"},
      {"molecule": "COc1cccc(-n2c(/C=C/c3ccc(O)c(O)c3)nc3ccccc3c2=O)c1", "Potency": "inconclusive: 22.4 µM [inhibitor, single point]"},
      {"molecule": "Cc1ccc(CCNC(=O)c2c[nH]c3ccc(S(=O)(=O)Nc4ccc(C)cc4C)cc3c2=O)cc1", "Potency": "inconclusive: 1.12 µM [inhibitor, single point]"},
      {"molecule": "O=S(=O)(c1ccccc1C(F)(F)F)N1CCN(c2ncnc3sccc23)CC1", "Potency": "inconclusive: 35.5 µM [inhibitor, single point]"},
      {"molecule": "CCOc1ccc(C2C(C(=O)c3ccco3)=C(O)C(=O)N2CCCn2ccnc2)cc1", "note": "(configuration not stated)", "Potency": "inactive"},
      {"molecule": "CCOc1ncccc1C(=O)OCC(=O)c1cc(C)n(Cc2ccco2)c1C", "Potency": "inconclusive: 29.1 µM [inhibitor, single point]"},
      {"molecule": "COc1ccc(CCNC(=O)C2CC(O)CN2S(=O)(=O)c2ccc(Cl)cc2)cc1OC", "note": "(configuration not stated)", "Potency": "inconclusive: 1.26 µM [activator, single point]"},
      {"molecule": "Cc1ccccc1C(=O)Nc1ccc(OCc2cc(=O)n3ccccc3n2)cc1", "Potency": "inconclusive: 20 µM [activator, single point]"},
      {"molecule": "COCCOC(=O)C1=C(C)N=C2SCCC(=O)N2C1/C=C/c1ccccc1", "note": "(configuration not stated)", "Potency": "inconclusive: 22.4 µM [inhibitor, single point]"},
      {"molecule": "COc1ccc(C(=O)N/N=C(\\C)CC(=O)Nc2ccc(Cl)cn2)cc1", "Potency": "inconclusive: 14.1 µM [activator, single point]"},
      {"molecule": "CN(C)C(=O)C1CCC(=O)N1Cc1cccs1", "note": "(configuration not stated)", "Potency": "inactive"},
      {"molecule": "OCCNCc1cc(Br)ccc1OCc1ccc(F)cc1", "Potency": "inconclusive: 35.5 µM [inhibitor, partial curve, poor fit]"},
      {"molecule": "CCOC(=O)c1ccc(Nc2ccc(-c3ccc(OC)c(OC)c3)nn2)cc1", "Potency": "inconclusive: 0.0651 µM [activator, full curve, poor fit]"},
      {"molecule": "COc1ccc(N(C)C(=O)Cn2c(=O)oc3ccccc32)c(OC)c1", "Potency": "inconclusive: 6.31 µM [inhibitor, single point]"},
      {"molecule": "CC(C)(CO)NC(=O)CC1C(=O)NCCN1Cc1ccc(-c2ccccc2)cc1", "note": "(configuration not stated)", "Potency": "inactive"},
      {"molecule": "CNC(=O)COC(=O)c1ccccc1Nc1ccccc1", "Potency": "inactive"},
      {"molecule": "COc1cc(C=C2C(=O)OC(c3ccccc3)OC2=O)cc(Br)c1O", "note": "(configuration not stated)", "Potency": "inactive"},
      {"molecule": "Cc1nn(-c2ccc(N3CCCCC3)nn2)c(C)c1CCC(=O)NCc1ccc(OC(C)C)cc1", "Potency": "inconclusive: 11.2 µM [inhibitor, partial curve, poor fit]"},
      {"molecule": "CCc1ccc2nc3n[nH]c(N)c3cc2c1", "Potency": "inconclusive: 3.26 µM [activator, full curve]"},
      {"molecule": "O=C(CS(=O)c1ccc(C(F)(F)F)cc1[N+](=O)[O-])Oc1ccccc1", "note": "(configuration not stated)", "Potency": "inconclusive: 35.5 µM [inhibitor, single point]"},
      {"molecule": "[O-]/C(=C(\\C(=S)Nc1ccc(SC(F)F)cc1)[n+]1ccccc1)c1cc(Cl)ccc1Cl", "Potency": "inconclusive: 15.8 µM [inhibitor, single point]"},
      {"molecule": "CC(=O)c1c(C)oc2ccc(N(C(=O)Oc3ccccc3)S(=O)(=O)c3ccccc3)cc12", "Potency": "inconclusive: 2.82 µM [inhibitor, single point]"},
      {"molecule": "Cc1ccc(S(=O)(=O)c2c(Nc3cc(C)ccc3C)sc(C(=O)c3ccc4c(c3)OCO4)c2N)cc1", "Potency": "inconclusive: 10 µM [inhibitor, partial curve, poor fit]"}
    ]}
  ]
}
